Results taken from PubChem BioAssay AID624297 (National Center for Advancing Translational Sciences (NCATS), 2012).
Several values for one entry are separate records, joined by “and”; a condition that tells them apart may be missing. Identical values can stand only once. Hit rate of the full screen: of about 340,000 compounds, about 6,200 (1.8%) were called active. This list was built around the results that the source calls inconclusive (neither active nor inactive); the mix of calls is not that of the screen. Calls come from the whole dose curve; as a rule, active = well fitted activation curve with a large enough effect; inconclusive = small, poorly fitted or top-dose-only effect; inactive = no such curve, though single readings can be large or run the other way. Potencies of inconclusive entries are doubtful fits and often do not repeat.

assay: A quantitative high throughput screen for small molecules that induce DNA re-replication in SW480 colon adenocarcinoma cells.; note: nearly all actives have a fitted effect of over 55% in size; for re-replication activation: % of control where 0% means no effect; details: Hoechst DNA content imaging, 48 h; re-replication activation: at 46.1 µM (top of the series) unless noted
How it was run: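 Per well, 250 cells were exposed to pinned compound for 48 hr. Nuclear DNA was visualised with Hoechst (40 min, 37 C) and total object intensity recorded by fluorescence scanning.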
Potency is the fitted concentration of half-maximal effect.

SMILES | Potency | re-replication activation
COc1ccccc1NC(=O)c1nc(S(=O)(=O)Cc2ccccc2)ncc1Cl | inconclusive: 4.61 µM [activator, single point] | 
COc1ccc(-c2nnc(SCC(=O)NC(=O)Cc3ccccc3)n2C)cc1 | inconclusive: 29.1 µM [activator, single point] | 
O=S1(=O)C=CC(Nc2cccc(Cl)c2)C1 (configuration not stated) |  | inactive: 28.4%
O=C(CCN1C(=O)C2C3CCC(C3)C2C1=O)Nc1ccc(Br)cc1 (configuration not stated) | active: 11.6 µM | 
CNC(=O)c1[nH]nc2c1CCc1cc(OC)ccc1-2 | inconclusive: 20.6 µM [activator, single point] | 
CC1CCN(CC(=O)N2CCCc3c2c(=O)oc2ccc(OCc4ccccc4)cc32)CC1 | inconclusive: 0.184 µM [activator, full curve, poor fit] | 
O=c1c(Cc2ccc(F)cc2)c(O)ccn1CCCN1CCOCC1 | inconclusive: 0.13 µM [activator, full curve, poor fit] | 
CSC1=NC(C(Cl)(Cl)Cl)N=C(c2ccccc2)N1 (configuration not stated) | inconclusive: 18.4 µM [activator, single point] | 
COc1ccccc1/C=C/c1nc(S(=O)(=O)c2ccccc2)c(N2CCC(C(N)=O)CC2)o1 | active: 18.4 µM | 
COc1ccc([C@H]2CC(=O)C=C(c3cc(C=O)ccc3OC)C2)cc1OC | inconclusive: 29.1 µM [activator, single point] | 
C/C(=N\NC(=O)c1ccc(N2CCCC2=O)cc1)c1ccc(O)cc1O | active: 9.2 µM | 
CC1=C(C(=O)OCc2ccccc2)C(c2ccc(N(C)C)cc2)NC(=O)N1 (configuration not stated) | inconclusive: 29.1 µM [activator, single point] | 
O=C(NC1CCCC1)c1ccc2nc(-c3ccco3)c(-c3ccco3)nc2c1 | inconclusive: 23.1 µM [activator, partial curve, poor fit] | 
Cc1ccc(NC2=NCC(Cc3ccc(Br)cc3)S2)cc1 (configuration not stated) | inconclusive: 18.4 µM [activator, single point] | 
Cc1ccc(-n2nc3cc(C)c(N)cc3n2)cc1 | inconclusive: 16.4 µM [activator, partial curve, poor fit] | 
O=C(C1CCCN(S(=O)(=O)c2ccc(F)cc2)C1)N1CCCC1 (configuration not stated) |  | inactive: 1.53%
CC(C)(C)c1ccc(C(=O)N2CCC(C(=O)NC3CCCCCC3)CC2)cc1 | inconclusive: 23.1 µM [activator, single point] | 
Cc1nc2cc(-c3ccc(Cl)cc3)nn2c(NCCN(C)C)c1C | inconclusive: 29.1 µM [activator, single point] | 
CCN(CC)C(=O)c1cc(Cl)ccc1NC(=O)c1ccco1 |  | inactive: -8.25%
CCOc1cc(N2CCOCC2)c(OCC)cc1NC(=O)COc1ccccc1[N+](=O)[O-] |  | inactive: -8.71%
COc1cc(NC(=S)N2CCC(C(N)=O)CC2)c(OC)cc1Cl |  | inactive: -0.234%
CCOc1ccccc1NC(=O)c1cccc2ccccc12 | inconclusive: 29.1 µM [activator, single point] | 
Cc1ccc(NC(=S)N2CCN(S(=O)(=O)c3ccc(F)cc3)CC2)cc1 | inconclusive: 29.1 µM [activator, single point] | 
O=C(COC(=O)c1cc(=O)[nH]c2ccccc12)NCCc1ccccc1 |  | inactive: -2.32%

SMILES | Potency | re-replication activation
Nc1ccc(C(=O)N2CCCC2)cc1CS(=O)(=O)c1ccc(Cl)cc1 |  | inactive: -90.5%
CC(C)CCN1C(=O)CCC1(C)C(=O)NC1CCCCCCC1 (configuration not stated) |  | inactive: -5.36%
Brc1ccccc1/C=N/Nc1ccccn1 |  | inactive: -15.9%
O=C(N/N=C/C1CC=CCC1)c1cc2ccccc2cc1O (configuration not stated) |  | inactive: -4.41%
COc1ccc(C[C@@H]2OC3(C=CC(=O)C=C3)O[C@H]2Cc2ccc(OC)cc2)cc1 | active: 0.92 µM | 
Cc1cc(C)cc(NC(=O)Cn2nnc(C(=O)NCCc3ccccc3)c2N)c1 | inconclusive: 6.51 µM [activator, single point] | 
O=S(=O)(c1cccc(C(F)(F)F)c1)N1CCC(CO)(CCCc2ccccc2)CC1 | inconclusive: 11.6 µM [activator, partial curve, poor fit] | 
c1ccc(-n2cnc3cc(NCc4cccs4)ccc32)cc1 | active: 13 µM | 
CCCN(CC(=O)Nc1ccccc1C)C(=O)C1CC(=O)N(Cc2ccccc2)C1 (configuration not stated) | inconclusive: 0.184 µM [activator, full curve, poor fit] | 
COc1cc2nc(N(CCCN(C)C)C(=O)c3ccc(C(=O)c4ccccc4)cc3)sc2cc1OC |  | inactive: 1.72%
COc1cc([N+](=O)[O-])ccc1NC(=O)NCC1CCN(Cc2ccc(Cl)cc2)CC1 | inconclusive: 23.1 µM [activator, single point] | 
C=CCNC(=O)Nc1ccc(F)c(Cl)c1 | inconclusive: 29.1 µM [activator, single point] | 
O/N=C/C1=C(Cl)c2ccccc2CC1 | inconclusive: 29.1 µM [activator, single point] | 
O=[N+]([O-])c1ccccc1CCc1ccccc1[N+](=O)[O-] | inconclusive: 0.651 µM [activator, partial curve, poor fit] | 
CC(C)=C1C2CCC1C(C(=O)Nc1sc(C)c(-c3ccc(C(C)C)cc3)c1C(N)=O)C2C(=O)O (configuration not stated) | inconclusive: 20.6 µM [activator, single point] | 
N#CC1=C(N)SC(N)=C(C#N)C1C1CC=CCC1 (configuration not stated) | inconclusive: 29.1 µM [activator, single point] | 
COc1ccc(CC(=O)NNC(=O)COc2ccc3ccccc3c2)cc1 |  | inactive: -3.56%
COc1ccc(-n2nc(C(=O)Nc3ccc(OC)c(OC)c3)c3c4ccccc4n(C)c3c2=O)cc1 | active: 16.4 µM | 
CCc1ccc(C(=O)Nc2nc3ccccc3[nH]2)cc1 | inconclusive: 29.1 µM [activator, single point] | 
O=C(Nc1ccc(-n2cccn2)cc1)C1CCCCN1Cc1cccc2c1OCO2 (configuration not stated) | inconclusive: 23.1 µM [activator, single point] | 
Cc1cc(C)cc(N(CC(=O)NC(C)(C)C)C(=O)CCC(=O)Nc2nccs2)c1 |  | inconclusive: 19.2% [activator]
COc1cccc(CN2CCN(Cc3cc4ccccc4[nH]3)CC2CCO)c1 (configuration not stated) |  | inactive: -1.68%
NC(=O)C1CCN(CC(=O)Nc2ccc3c(c2)OCCO3)CC1 |  | inactive: -4.78%
O=C(CSc1nnc(-c2ccccc2)c(-c2ccccc2)n1)N1CCc2ccccc21 |  | inactive: 2.68%

SMILES | Potency | re-replication activation
O=C(CSc1nnc2ccc(-c3cccnc3)nn12)Nc1ccc(F)cc1F |  | inactive: -3.7%
CCOCCC(=O)Nc1nnc(CCc2ccccc2)s1 |  | inactive: 1.3%
O=S(=O)(c1cccc(S(=O)(=O)N2CCC(Cc3ccccc3)CC2)c1)N1CCOCC1 | inconclusive: 29.1 µM [activator, single point] | 
COc1ccc(N=Cc2nc(-c3ccccc3)oc2OC(C)=O)cc1 | inconclusive: 1.03 µM [activator, full curve, poor fit] | 
CCOc1ccc2[nH]c3ncccc3c(=O)c2c1 | inconclusive: 29.1 µM [activator, single point] | 
COC(=O)c1ccc(NCc2cc(O)ccc2O)cc1 | inconclusive: 20.6 µM [activator, single point] | 
COc1ccc(COc2cc(-c3cccc(OC)c3)nc3ccc(N)cc23)cc1 | active: 1.46 µM | 
CCOC(=O)c1nn(-c2ccccc2C)c2nc(-c3ccc(Cl)cc3)c(C#N)c(=O)n12 | inconclusive: 18.4 µM [activator, single point] | 
Cc1cc(Br)ccc1NC(=O)CSCc1c(C)noc1C |  | inactive: 6.61%
C=CCOC(=O)C1=C(C)Nc2ncnn2C1c1cc(Br)ccc1F (configuration not stated) | inconclusive: 16.4 µM [activator, partial curve, poor fit] | 
CC1=CC(C)(C)n2c(O)c(N=NC(N)=S)c3c(C)ccc1c32 |  | inactive: 2.58%
NS(=O)(=O)c1ccc(NC(=O)c2cc(-c3cccs3)nc3ccccc23)cc1 | inconclusive: 32.6 µM [activator, partial curve, poor fit] | 
Cc1ccnc(NC(=O)CNC(=O)Cc2cccc3ccccc23)c1 |  | inactive: 52.3%
Cc1cc(Cl)ccc1OCCCC(=O)NO | inconclusive: 32.6 µM [activator, single point] | 
Nc1cc(C(=O)OCC(=O)NCCCc2ccccc2)ccc1Cl |  | inconclusive: 61.3% [activator]
Cc1ccc(S(=O)(=O)N2CCCCC2CCNC(=O)C(=O)NCc2ccccc2)cc1 (configuration not stated) | active: 6.51 µM | 
CCOC(=O)C1=C(COC(=O)/C=C/c2ccco2)NC(=O)NC1C (configuration not stated) | inconclusive: 18.4 µM [activator, single point] | 
Cc1cccc(C)c1NC(=O)COC(=O)c1c2c(nc3ccccc13)/C(=C\c1ccc3c(c1)OCO3)CCC2 | inconclusive: 3.66 µM [activator, full curve] and inconclusive: 20.6 µM [activator, single point] | 
CCN1CCCC1CNC(=O)c1ccc2c(c1)N(Cc1cccc(Cl)c1)C(=O)c1ccccc1S2(=O)=O (configuration not stated) |  | inactive: 4.63%
O=C(NCCN1CCOCC1)c1ccc(Cl)cc1 | inconclusive: 14.6 µM [activator, single point] | 
COc1cc(CNCc2ccccn2)ccc1OCc1ccc(Cl)c(Cl)c1 | inconclusive: 25.9 µM [activator, single point] | 
CCC(=O)NNc1ncnc2c1cnn2C | inconclusive: 29.1 µM [activator, single point] | 
O=C(Cc1ccc2c(c1)OCO2)NN=Cc1ccc([N+](=O)[O-])o1 | active: 18.4 µM | 
COc1ccc(S(=O)(=O)N2CCCCC2)cc1NC(=O)c1c(F)cccc1Cl | inconclusive: 23.1 µM [activator, single point] | 
